Results as given in publication PMC10410063.

Protein sequences, listed by entry. Tags and fused reporters are not part of them. Lines headed by an entry give the natural chain unless they say otherwise; changes in a name come on top.
UniProt Q60932: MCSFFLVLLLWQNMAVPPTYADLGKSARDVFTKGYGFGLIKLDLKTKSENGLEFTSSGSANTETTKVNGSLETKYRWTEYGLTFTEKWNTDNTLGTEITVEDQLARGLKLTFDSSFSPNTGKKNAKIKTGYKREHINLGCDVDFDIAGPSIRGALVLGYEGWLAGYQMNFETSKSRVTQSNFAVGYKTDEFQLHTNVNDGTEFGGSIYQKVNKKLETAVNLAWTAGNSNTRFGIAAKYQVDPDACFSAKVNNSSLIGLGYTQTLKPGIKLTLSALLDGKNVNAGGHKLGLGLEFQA
UniProt P11881: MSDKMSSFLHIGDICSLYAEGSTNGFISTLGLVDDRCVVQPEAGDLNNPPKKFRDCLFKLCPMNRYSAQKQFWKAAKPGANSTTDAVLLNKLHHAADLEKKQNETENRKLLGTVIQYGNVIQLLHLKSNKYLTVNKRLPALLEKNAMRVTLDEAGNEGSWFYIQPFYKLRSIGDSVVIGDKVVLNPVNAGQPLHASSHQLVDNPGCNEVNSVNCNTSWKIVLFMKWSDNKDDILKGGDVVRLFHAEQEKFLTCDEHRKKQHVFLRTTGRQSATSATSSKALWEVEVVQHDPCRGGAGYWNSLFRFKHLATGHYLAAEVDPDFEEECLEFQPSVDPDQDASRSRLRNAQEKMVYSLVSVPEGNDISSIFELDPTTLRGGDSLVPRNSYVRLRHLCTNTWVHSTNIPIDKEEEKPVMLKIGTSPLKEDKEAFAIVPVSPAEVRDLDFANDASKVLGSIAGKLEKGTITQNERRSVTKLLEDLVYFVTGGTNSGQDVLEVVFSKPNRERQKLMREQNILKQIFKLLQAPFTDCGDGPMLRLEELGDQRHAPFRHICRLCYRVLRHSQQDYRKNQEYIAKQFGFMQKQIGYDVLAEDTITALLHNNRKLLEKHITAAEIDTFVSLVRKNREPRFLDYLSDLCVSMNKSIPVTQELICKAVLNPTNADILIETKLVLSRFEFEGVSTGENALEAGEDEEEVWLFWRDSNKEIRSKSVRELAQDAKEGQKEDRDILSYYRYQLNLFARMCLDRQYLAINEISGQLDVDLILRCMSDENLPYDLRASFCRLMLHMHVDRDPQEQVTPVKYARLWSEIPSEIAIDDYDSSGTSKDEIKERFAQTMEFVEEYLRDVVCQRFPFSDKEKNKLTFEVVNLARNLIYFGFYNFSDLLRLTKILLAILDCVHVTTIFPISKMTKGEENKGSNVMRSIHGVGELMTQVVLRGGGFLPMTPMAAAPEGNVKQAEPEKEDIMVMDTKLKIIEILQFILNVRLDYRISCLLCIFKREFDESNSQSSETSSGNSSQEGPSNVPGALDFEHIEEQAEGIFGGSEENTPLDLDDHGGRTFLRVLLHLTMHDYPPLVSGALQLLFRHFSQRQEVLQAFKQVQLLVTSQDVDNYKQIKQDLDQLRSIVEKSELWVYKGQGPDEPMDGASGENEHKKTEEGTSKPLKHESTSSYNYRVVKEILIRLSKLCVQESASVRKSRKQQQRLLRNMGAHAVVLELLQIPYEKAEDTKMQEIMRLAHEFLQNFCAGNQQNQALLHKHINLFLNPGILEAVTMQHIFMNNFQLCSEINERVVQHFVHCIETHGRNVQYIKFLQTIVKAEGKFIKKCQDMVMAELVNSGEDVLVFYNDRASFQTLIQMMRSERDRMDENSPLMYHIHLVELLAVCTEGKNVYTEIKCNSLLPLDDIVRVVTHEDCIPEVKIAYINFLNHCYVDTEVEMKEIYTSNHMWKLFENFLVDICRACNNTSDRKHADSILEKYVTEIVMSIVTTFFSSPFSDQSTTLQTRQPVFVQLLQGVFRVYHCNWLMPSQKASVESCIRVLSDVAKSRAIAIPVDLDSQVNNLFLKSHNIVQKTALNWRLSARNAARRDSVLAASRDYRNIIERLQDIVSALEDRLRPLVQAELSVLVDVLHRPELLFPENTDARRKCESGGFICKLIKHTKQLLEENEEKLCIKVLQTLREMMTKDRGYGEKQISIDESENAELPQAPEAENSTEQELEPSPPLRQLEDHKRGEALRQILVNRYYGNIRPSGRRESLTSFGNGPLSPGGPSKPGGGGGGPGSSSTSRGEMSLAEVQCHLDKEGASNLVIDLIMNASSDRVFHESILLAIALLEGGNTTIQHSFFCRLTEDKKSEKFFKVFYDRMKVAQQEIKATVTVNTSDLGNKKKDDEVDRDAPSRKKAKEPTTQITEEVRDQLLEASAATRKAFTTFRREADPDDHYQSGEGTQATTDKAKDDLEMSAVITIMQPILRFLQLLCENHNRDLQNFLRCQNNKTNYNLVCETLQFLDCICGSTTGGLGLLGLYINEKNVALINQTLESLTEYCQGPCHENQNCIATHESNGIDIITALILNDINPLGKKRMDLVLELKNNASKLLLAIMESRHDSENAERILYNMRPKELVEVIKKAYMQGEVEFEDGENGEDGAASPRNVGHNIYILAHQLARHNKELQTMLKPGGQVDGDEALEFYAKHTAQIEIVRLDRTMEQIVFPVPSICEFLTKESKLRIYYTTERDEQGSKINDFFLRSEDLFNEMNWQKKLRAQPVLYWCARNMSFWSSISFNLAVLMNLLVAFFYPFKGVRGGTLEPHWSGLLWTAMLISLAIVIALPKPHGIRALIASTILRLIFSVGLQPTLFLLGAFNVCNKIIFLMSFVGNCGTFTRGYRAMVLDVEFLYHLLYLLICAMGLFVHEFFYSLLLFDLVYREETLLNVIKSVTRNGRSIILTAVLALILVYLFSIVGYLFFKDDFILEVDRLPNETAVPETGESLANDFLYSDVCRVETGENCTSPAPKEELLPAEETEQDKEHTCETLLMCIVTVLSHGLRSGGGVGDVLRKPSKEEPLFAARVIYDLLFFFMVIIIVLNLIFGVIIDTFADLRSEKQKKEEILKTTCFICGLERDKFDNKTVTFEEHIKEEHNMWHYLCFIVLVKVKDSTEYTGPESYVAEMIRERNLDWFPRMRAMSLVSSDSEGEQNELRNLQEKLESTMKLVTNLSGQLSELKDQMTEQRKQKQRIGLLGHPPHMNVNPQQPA

Biological target: voltage dependent anion channel 1 (VDAC1) (mouse (endogenous in HT22)) (UniProt Q60932)
Experiment: proximity ligation; in situ Duolink PLA on fixed, permeabilised HT22 cells with anti-InsP3R1 and anti-VDAC1 primary antibodies; control cells, 1 μM AβO for 23 h, 10 μM Tac, and Tac plus AβO; PLA puncta counted

binding: binds
Substance: inositol 1,4,5-trisphosphate receptor 1 (InsP3R1) (from UniProt P11881 1-2749)

Results are given in words; binding and its absence hold for the method and conditions named. In cells and extracts the contact can be indirect. A result given as binding can be weak or reduced; the word gives no strength.
